Many values rest on one well or one pass, so single values are uncertain.
Compound: [O-][N+](C(C1=C(C(O)=C2)NC(C(C=C3)=CC=C3Cl)C4C1C=CC4)=C2Cl)=O
Assay: melting temperature shift (compound 7 minus DMSO); higher = compound stabilises the protein
Settings: 10 µM
Method: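 Thermal proteome profiling (TMT mass spectrometry) in intact DAOY medulloblastoma cells or DAOY lysates treated with 10 µM compound 7 or DMSO, heated at 10 temperatures from 40.5 to 73.8 °C for 3 min. Melting curves were fitted with the Bioconductor TPP package, and the melting point difference between compound and vehicle is reported per protein (single curve per condition).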

Protein sequences, listed by entry. Tags and fused reporters are not part of them. Lines headed by an entry give the natural chain unless they say otherwise; changes in a name come on top.
UniProt Q5BJF2, whole entry: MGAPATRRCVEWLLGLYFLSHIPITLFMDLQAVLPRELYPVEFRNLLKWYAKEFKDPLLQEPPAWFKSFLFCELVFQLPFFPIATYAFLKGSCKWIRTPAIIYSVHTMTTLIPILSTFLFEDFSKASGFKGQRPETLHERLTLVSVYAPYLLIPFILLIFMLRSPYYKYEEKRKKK
UniProt Q49B96: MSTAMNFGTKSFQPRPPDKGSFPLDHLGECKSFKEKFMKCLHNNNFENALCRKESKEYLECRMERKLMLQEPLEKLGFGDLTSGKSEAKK
UniProt O95873: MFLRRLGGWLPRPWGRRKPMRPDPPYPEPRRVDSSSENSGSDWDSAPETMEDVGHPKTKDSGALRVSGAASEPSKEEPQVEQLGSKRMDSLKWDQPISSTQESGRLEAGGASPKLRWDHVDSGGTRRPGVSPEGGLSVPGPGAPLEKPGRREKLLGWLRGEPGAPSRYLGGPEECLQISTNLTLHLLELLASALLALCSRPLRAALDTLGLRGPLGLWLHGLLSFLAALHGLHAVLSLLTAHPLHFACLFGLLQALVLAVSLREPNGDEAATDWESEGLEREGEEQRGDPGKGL
UniProt P28370, whole entry: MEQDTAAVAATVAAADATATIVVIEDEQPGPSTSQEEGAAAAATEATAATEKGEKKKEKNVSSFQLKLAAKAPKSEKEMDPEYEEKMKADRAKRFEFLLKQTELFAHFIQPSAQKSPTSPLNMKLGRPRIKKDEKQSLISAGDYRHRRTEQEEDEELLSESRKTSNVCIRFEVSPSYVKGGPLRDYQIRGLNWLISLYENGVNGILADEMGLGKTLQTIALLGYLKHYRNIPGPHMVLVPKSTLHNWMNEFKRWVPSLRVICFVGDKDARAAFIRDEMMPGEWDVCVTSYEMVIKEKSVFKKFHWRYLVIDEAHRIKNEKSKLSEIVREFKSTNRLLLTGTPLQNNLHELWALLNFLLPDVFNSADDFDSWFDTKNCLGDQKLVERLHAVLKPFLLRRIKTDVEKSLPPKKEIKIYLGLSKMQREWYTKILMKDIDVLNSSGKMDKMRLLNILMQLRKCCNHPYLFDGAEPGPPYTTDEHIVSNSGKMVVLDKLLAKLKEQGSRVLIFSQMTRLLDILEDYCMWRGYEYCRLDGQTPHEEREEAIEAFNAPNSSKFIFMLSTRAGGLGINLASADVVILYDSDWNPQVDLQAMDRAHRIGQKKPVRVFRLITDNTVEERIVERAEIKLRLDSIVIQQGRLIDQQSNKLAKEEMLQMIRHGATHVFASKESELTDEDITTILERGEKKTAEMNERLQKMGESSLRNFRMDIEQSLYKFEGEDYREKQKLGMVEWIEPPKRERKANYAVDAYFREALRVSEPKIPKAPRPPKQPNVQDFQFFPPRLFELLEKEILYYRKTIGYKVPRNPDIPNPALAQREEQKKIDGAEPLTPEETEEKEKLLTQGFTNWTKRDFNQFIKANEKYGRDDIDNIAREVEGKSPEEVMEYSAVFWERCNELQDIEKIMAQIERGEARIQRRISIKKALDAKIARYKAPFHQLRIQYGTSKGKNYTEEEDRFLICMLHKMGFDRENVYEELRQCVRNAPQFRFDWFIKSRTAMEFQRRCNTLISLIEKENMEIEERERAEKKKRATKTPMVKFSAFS
UniProt Q5JQC4: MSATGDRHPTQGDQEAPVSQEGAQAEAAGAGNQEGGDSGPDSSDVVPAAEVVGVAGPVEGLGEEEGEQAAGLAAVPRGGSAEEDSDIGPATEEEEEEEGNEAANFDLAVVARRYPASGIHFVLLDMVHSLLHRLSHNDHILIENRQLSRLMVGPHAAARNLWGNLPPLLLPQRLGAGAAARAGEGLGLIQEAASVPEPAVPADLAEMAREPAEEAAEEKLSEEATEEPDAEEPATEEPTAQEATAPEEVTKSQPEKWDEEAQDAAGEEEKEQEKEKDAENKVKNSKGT
UniProt Q92785, whole entry: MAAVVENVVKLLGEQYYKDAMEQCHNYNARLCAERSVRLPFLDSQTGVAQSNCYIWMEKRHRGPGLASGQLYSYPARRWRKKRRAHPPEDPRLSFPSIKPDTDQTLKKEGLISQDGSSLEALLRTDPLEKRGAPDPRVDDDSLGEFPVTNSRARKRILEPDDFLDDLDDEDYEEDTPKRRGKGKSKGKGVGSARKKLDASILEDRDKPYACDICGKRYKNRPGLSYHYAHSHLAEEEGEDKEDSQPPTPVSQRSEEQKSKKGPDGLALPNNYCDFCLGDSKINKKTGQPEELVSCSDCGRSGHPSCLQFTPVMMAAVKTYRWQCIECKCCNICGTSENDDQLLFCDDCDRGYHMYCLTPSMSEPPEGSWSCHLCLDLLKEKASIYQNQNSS
UniProt Q15369, whole entry: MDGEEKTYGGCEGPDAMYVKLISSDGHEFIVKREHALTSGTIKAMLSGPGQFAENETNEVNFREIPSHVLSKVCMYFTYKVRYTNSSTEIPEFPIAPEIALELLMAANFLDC
UniProt Q99496: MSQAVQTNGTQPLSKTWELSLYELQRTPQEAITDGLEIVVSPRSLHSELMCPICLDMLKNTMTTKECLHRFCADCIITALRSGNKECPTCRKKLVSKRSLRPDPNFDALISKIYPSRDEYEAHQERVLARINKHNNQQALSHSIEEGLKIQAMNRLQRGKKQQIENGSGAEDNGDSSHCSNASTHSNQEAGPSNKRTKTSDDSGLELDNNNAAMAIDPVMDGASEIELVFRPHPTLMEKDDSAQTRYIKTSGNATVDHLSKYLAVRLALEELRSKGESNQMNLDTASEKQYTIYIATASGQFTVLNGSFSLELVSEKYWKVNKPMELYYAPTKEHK
UniProt P39748, whole entry: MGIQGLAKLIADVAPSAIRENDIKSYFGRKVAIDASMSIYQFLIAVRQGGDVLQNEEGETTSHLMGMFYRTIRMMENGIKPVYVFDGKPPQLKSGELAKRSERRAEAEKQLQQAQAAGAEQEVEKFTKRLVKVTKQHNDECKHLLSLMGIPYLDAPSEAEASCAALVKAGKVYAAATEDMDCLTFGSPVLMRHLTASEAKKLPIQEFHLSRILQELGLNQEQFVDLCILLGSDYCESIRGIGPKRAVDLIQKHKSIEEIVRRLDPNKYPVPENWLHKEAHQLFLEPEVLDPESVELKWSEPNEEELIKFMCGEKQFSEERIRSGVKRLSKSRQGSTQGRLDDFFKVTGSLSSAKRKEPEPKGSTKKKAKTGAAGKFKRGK
UniProt Q15049: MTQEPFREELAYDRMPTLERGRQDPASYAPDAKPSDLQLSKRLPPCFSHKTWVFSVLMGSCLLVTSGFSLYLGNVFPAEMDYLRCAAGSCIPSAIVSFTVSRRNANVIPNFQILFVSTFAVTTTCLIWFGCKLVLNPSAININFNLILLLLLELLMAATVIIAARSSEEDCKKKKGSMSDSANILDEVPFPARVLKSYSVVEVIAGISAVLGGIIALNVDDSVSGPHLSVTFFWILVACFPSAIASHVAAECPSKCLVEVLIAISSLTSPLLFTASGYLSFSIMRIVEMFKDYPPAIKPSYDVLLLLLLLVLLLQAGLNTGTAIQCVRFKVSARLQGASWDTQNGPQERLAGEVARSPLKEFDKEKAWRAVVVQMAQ
UniProt Q86W42: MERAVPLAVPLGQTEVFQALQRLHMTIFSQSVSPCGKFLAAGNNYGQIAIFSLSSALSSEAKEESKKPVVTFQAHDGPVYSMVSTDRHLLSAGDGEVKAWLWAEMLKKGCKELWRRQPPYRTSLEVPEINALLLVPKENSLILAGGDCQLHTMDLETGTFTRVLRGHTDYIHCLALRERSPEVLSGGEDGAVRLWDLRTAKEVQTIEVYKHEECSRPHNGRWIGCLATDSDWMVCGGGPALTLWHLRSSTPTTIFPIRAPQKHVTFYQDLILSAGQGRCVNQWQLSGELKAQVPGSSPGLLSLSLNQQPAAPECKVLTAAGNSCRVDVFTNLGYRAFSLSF
UniProt Q16836: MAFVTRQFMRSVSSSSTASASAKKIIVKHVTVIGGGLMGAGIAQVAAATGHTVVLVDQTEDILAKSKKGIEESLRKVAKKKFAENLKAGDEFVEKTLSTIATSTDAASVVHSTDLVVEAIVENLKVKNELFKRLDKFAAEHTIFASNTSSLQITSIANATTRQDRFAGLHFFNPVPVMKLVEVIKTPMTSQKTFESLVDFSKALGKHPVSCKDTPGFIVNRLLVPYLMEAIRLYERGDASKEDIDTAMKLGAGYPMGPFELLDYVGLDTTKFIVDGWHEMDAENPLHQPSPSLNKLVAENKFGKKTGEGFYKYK
UniProt Q15397: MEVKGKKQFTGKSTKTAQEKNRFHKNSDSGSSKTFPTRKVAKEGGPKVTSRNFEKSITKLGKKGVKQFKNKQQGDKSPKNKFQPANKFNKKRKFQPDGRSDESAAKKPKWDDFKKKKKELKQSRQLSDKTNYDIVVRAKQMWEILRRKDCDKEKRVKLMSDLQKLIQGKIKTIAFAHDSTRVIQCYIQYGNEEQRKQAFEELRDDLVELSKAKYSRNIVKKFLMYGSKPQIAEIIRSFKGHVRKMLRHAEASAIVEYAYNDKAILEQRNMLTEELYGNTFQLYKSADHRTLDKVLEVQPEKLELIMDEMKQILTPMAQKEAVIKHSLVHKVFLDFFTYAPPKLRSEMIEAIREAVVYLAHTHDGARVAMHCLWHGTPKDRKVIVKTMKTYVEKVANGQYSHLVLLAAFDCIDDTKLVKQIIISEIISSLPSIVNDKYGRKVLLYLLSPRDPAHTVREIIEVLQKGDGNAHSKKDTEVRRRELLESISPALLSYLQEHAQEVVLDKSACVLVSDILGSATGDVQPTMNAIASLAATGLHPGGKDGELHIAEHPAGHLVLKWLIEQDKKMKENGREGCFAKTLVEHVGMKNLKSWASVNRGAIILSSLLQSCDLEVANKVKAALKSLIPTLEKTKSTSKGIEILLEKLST
UniProt Q8TDW4: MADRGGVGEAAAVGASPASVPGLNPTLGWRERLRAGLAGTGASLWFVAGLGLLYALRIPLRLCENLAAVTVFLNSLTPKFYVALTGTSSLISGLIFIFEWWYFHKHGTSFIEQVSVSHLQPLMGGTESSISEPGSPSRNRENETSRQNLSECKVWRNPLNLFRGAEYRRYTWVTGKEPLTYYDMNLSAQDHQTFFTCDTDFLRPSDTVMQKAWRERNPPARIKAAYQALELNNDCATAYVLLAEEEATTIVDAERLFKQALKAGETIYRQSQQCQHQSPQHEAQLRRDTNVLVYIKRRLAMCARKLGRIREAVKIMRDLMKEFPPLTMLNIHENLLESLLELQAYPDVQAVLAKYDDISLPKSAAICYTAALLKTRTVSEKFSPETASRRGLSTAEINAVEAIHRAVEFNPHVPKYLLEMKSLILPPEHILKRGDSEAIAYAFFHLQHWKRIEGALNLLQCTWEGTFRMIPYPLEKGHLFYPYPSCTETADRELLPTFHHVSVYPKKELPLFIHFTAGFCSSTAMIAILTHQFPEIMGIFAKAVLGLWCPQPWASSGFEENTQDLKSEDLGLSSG
UniProt P53396: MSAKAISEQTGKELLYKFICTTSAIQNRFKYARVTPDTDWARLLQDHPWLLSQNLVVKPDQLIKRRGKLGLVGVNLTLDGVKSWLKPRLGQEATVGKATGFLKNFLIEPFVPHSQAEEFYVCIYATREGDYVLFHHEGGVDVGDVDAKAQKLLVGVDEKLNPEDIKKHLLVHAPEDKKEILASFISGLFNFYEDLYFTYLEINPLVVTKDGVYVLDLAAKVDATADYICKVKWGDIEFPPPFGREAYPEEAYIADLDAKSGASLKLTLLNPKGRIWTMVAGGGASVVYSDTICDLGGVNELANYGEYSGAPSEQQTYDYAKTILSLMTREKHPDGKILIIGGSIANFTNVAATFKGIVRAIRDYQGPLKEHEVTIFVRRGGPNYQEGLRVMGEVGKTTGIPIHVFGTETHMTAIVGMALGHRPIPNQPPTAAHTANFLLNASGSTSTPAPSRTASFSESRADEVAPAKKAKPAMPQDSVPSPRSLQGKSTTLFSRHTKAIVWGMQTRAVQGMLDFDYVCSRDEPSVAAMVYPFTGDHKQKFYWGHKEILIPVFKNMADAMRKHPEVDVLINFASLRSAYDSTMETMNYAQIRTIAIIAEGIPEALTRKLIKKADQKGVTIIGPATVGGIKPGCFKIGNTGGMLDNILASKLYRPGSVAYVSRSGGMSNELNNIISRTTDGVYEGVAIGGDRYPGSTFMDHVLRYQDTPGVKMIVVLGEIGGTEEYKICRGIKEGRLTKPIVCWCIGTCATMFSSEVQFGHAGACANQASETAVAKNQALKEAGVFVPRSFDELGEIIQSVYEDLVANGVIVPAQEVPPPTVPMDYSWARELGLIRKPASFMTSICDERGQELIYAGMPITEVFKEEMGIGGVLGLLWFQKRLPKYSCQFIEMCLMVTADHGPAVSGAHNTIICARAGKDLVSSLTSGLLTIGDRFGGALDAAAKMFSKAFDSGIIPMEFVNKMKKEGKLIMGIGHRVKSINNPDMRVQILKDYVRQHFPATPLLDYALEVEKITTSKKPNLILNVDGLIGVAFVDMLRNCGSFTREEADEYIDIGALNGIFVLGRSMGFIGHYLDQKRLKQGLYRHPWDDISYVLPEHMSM
UniProt Q9BTL3: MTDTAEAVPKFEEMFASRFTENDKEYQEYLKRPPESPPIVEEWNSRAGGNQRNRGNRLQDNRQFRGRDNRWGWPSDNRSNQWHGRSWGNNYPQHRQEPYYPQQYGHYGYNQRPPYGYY

[1] = system: DAOY cell lysate, treatment time: 20 min, 4 °C
[2] = system: intact DAOY cells, treatment time: 90 min, 37 °C

Row | Target | melting temperature shift [1] | melting temperature shift [2]
1 | FAM129B (UniProt Q96TA1) | -0.262 °C | -0.363 °C
2 | UniProt Q16720 | – | -1.88 °C
3 | TMEM97 (UniProt Q5BJF2) | 2.39 °C | -0.323 °C
4 | COX19 (UniProt Q49B96) | – | 0.523 °C
5 | UniProt P34913 | 5.89 °C | 0.812 °C
6 | RBFOX2 (UniProt O43251) | -0.0281 °C | -0.701 °C
7 | UniProt Q86TX2 | -1.43 °C | 1.74 °C
8 | NHSL1 (UniProt Q5SYE7) | 0.102 °C | -3.1 °C
9 | KIAA1033 (UniProt Q2M389) | -1.14 °C | 0.212 °C
10 | UniProt O95873 | -1.29 °C | –
11 | USP13 (UniProt Q92995) | -0.224 °C | 0.596 °C
12 | CDC42 (UniProt P60953) | 0.349 °C | -0.549 °C
13 | UniProt P49841 | -1.12 °C | -0.185 °C
14 | TRIP13 (UniProt Q15645) | -0.17 °C | -2.27 °C
15 | CTIF (UniProt O43310) | 0.112 °C | 0.0288 °C
16 | UniProt A6NMY6 | – | 0.315 °C
17 | AK3 (UniProt Q9UIJ7) | 0.387 °C | -0.642 °C
18 | PWP1 (UniProt Q13610) | 1.39 °C | 1.93 °C
19 | UniProt P28370 | 0.921 °C | 0.257 °C
20 | MINPP1 (UniProt Q9UNW1) | -0.357 °C | 0.45 °C
21 | SUB1 (UniProt P53999) | -0.533 °C | 0.401 °C
22 | TBK1 (UniProt Q9UHD2) | -0.931 °C | -0.87 °C

Row | Target | melting temperature shift [1] | melting temperature shift [2]
23 | FIP1L1 (UniProt Q6UN15) | -0.857 °C | -1.65 °C
24 | ANKZF1 (UniProt Q9H8Y5) | -2.09 °C | -0.861 °C
25 | RPL26 (UniProt P61254) | -0.164 °C | -0.984 °C
26 | ACTN1 (UniProt P12814) | -0.743 °C | 1.05 °C
27 | UniProt A8MWD9 | – | -0.839 °C
28 | SPC25 (UniProt Q9HBM1) | 0.00287 °C | 1.83 °C
29 | INTS3 (UniProt Q68E01) | -0.309 °C | 1.98 °C
30 | MARK2 (UniProt Q7KZI7) | -1.11 °C | 0.491 °C
31 | DAGLB (UniProt Q8NCG7) | -0.758 °C | -3.11 °C
32 | UniProt Q5JQC4 | -0.755 °C | 0.00653 °C
33 | SAAL1 (UniProt Q96ER3) | -1.6 °C | 0.709 °C
34 | PHF14 (UniProt O94880) | 0.963 °C | 1.7 °C
35 | UniProt P52790 | – | -0.386 °C
36 | TTF2 (UniProt Q9UNY4) | -0.427 °C | 0.457 °C
37 | DPF2 (UniProt Q92785) | -1.2 °C | 0.766 °C
38 | TCEB1 (UniProt Q15369) | -0.163 °C | 1.04 °C
39 | UniProt P28300 | 1.29 °C | 0.0768 °C
40 | ARIH2 (UniProt O95376) | -0.832 °C | 0.512 °C
41 | RNF2 (UniProt Q99496) | -0.531 °C | -0.41 °C
42 | FEN1 (UniProt P39748) | -0.296 °C | 0.157 °C
43 | UniProt Q15049 | – | -0.641 °C
44 | ATF7IP (UniProt Q6VMQ6) | -0.965 °C | -2.53 °C

Row | Target | melting temperature shift [1] | melting temperature shift [2]
45 | MKLN1 (UniProt Q9UL63) | -0.489 °C | 1.96 °C
46 | UniProt Q96B96 | 4.86 °C | –
47 | NTPCR (UniProt Q9BSD7) | -0.0202 °C | -0.762 °C
48 | SURF2 (UniProt Q15527) | -0.556 °C | -0.772 °C
49 | UniProt Q9UM47 | – | 1.74 °C
50 | THOC6 (UniProt Q86W42) | -1.42 °C | 2.84 °C
51 | YME1L1 (UniProt Q96TA2) | 1.13 °C | -1.66 °C
52 | MRTO4 (UniProt Q9UKD2) | 0.484 °C | 0.0861 °C
53 | COLGALT1 (UniProt Q8NBJ5) | 0.617 °C | 0.375 °C
54 | DNAAF5 (UniProt Q86Y56) | 0.11 °C | 1.13 °C
55 | BOLA2 (UniProt Q9H3K6) | -0.872 °C | -0.204 °C
56 | HADH (UniProt Q16836) | 0.883 °C | 0.302 °C
57 | B4GAT1 (UniProt O43505) | 1.27 °C | –
58 | PAPD5 (UniProt Q8NDF8) | 0.375 °C | –
59 | RPL9 (UniProt P32969) | 0.375 °C | -0.859 °C
60 | UniProt O00763 | – | 0.482 °C
61 | MORF4L1 (UniProt Q9UBU8) | -0.263 °C | -0.156 °C
62 | ATAD3A (UniProt Q9NVI7) | 0.045 °C | -0.803 °C
63 | EMC2 (UniProt Q15006) | 1.3 °C | -0.457 °C
64 | RAD54L2 (UniProt Q9Y4B4) | 2.77 °C | –
65 | TJP2 (UniProt Q9UDY2) | -0.114 °C | -0.782 °C
66 | CORO7 (UniProt P57737) | -0.874 °C | 0.771 °C

Row | Target | melting temperature shift [1] | melting temperature shift [2]
67 | HARS2 (UniProt P49590) | 0.0627 °C | -0.566 °C
68 | TTN (UniProt Q8WZ42) | -0.601 °C | –
69 | TBCD (UniProt Q9BTW9) | 0.313 °C | -0.68 °C
70 | PUM3 (UniProt Q15397) | 0.522 °C | 0.955 °C
71 | UniProt P22676 | -1.96 °C | -0.299 °C
72 | ARF6 (UniProt P62330) | -1.08 °C | -0.964 °C
73 | MSTO1 (UniProt Q9BUK6) | -0.509 °C | -0.672 °C
74 | UniProt Q8TDW4 | – | 1.45 °C
75 | MED20 (UniProt Q9H944) | -0.457 °C | -0.667 °C
76 | FCHO2 (UniProt Q0JRZ9) | -0.825 °C | -0.00167 °C
77 | ACLY (UniProt P53396) | -0.0791 °C | 0.644 °C
78 | UniProt Q8N2H4 | 1.48 °C | –
79 | FAM103A1 (UniProt Q9BTL3) | -4.11 °C | -0.961 °C
80 | UBE2Q1 (UniProt Q7Z7E8) | -0.689 °C | 0.075 °C
81 | LRSAM1 (UniProt Q6UWE0) | -0.623 °C | 0.563 °C
82 | TRAF2 (UniProt Q12933) | -0.0202 °C | 0.244 °C
83 | PAG1 (UniProt Q9NWQ8) | -3.71 °C | –
84 | SQLE (UniProt Q14534) | 1.07 °C | 0.253 °C
85 | ANXA5 (UniProt P08758) | -0.149 °C | 0.0543 °C
86 | UniProt Q9Y575 | -2.87 °C | –

An excerpt of these results, in markdown:

| Row | Target | melting temperature shift [1] | melting temperature shift [2] |
| --- | --- | --- | --- |
| 69 | TBCD (UniProt Q9BTW9) | 0.313 °C | -0.68 °C |
| 73 | MSTO1 (UniProt Q9BUK6) | -0.509 °C | -0.672 °C |
| 74 | UniProt Q8TDW4 | – | 1.45 °C |
| 76 | FCHO2 (UniProt Q0JRZ9) | -0.825 °C | -0.00167 °C |
| 78 | UniProt Q8N2H4 | 1.48 °C | – |
